In publication PMC10621130:
Results are given in words; binding and its absence hold for the method and conditions named. Binding seen in cells or lysates may run through a third protein. A result given as binding can be weak or reduced; the word gives no strength.

Target: T1, Novel (nua) kinase family 1 (NUAK1) (human (endogenous in KYSE30)) (UniProt O60285)
T1 sequence: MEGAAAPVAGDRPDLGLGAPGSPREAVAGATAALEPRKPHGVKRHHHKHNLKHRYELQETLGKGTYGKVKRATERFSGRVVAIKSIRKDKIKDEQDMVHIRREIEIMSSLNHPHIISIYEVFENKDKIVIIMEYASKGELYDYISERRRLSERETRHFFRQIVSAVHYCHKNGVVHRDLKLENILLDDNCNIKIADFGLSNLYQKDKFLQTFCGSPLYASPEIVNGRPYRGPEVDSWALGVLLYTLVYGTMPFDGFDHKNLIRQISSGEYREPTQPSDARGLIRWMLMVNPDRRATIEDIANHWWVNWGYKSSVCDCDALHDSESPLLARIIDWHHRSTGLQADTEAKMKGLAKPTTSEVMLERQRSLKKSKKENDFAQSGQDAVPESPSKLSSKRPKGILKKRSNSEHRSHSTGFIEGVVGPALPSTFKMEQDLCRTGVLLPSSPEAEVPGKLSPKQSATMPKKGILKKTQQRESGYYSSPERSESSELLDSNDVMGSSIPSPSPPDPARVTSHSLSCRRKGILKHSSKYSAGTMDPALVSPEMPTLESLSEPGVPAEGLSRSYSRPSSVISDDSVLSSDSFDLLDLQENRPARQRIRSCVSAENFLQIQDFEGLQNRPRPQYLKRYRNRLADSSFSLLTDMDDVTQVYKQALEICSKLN
Assay: co-IP; KYSE30 cell lysates (lysis buffer with protease and phosphatase inhibitors) immunoprecipitated with anti-NUAK1, anti-JNK or control IgG and protein A magnetic beads overnight; washed three times; Western blot

Substance: JNK (human (endogenous in KYSE30)) (enzyme)
- binding: binds
